Results deposited as PubChem BioAssay AID1508597 (Cure First, 2020)

Test: 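Knock-downs altering ovarian cancer cell survival with or without PARP inhibitor rucaparib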 (primary screen)
Cells: human ovarian carcinoma lines grown from tumours: OCI-P5x (papillary serous) and OCI-C5x (clear cell)
Knock-down reagent: siRNA pool against human genes, 1.25 pmol siRNA per well
Time to read-out: 72 h or 96 h, depending on the cell culture
Treatment: rucaparib 20 µM (about IC30) or vehicle, present until read-out
Rucaparib or vehicle: Vehicle
Cell line: OCI-P5x (serous)
Detection: 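Luminescent ATP-based viability assay read 72 or 96 h after transfection, depending on culture, given as normalised percent viability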
Reading the numbers: viability, normalised: higher = more viable cells remaining
Active means: 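Active when normalised viability falls below 80 percent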
Calls: active = viability under 80%; inactive = viability 80% or more
Shown is a random part of the about 2,100 reagents, in one setting of the screen. 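Calls flag viability under 80% in either arm, not effects specific to rucaparib; the reference for percent is not stated.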 Unmarked entries are inactive. Some reagents were tested in more than one well and are listed for each. Not given: the 100% reference.

Target gene | technical replicate | viability, normalised (%)
ROS1 | 1 | 65.6 (active)
ROS1 | 2 | 72.3 (active)
ROS1 | 3 | 74.5 (active)
TCF19 | 1 | 91.1
TCF19 | 2 | 57 (active)
TCF19 | 3 | 69.9 (active)
MED31 | 1 | 77.5 (active)
MED31 | 2 | 84.4
MED31 | 3 | 76.8 (active)
MELK | 1 | 63.8 (active)
MELK | 2 | 73.4 (active)
MELK | 3 | 69.5 (active)
CCNH | 1 | 48.5 (active)
CCNH | 2 | 66.1 (active)
CCNH | 3 | 48.3 (active)
SLX4 | 1 | 84.1
SLX4 | 2 | 79.1 (active)
SLX4 | 3 | 84.1
MTA2 | 1 | 49.5 (active)
MTA2 | 2 | 43.7 (active)
MTA2 | 3 | 52.5 (active)
PIF1 | 1 | 77.5 (active)
PIF1 | 2 | 70.1 (active)
PIF1 | 3 | 78.2 (active)
ARID4B | 1 | 78.2 (active)
ARID4B | 2 | 92.2
ARID4B | 3 | 77.6 (active)
ZC3HAV1 | 1 | 99.6
ZC3HAV1 | 2 | 63.9 (active)
ZC3HAV1 | 3 | 115
PALS1 | 1 | 102
PALS1 | 2 | 98.1
PALS1 | 3 | 78.1 (active)
RAPGEF3 | 1 | 100
RAPGEF3 | 2 | 86.5
RAPGEF3 | 3 | 102
TAF5 | 1 | 62.2 (active)
TAF5 | 2 | 69.3 (active)
TAF5 | 3 | 68.8 (active)
SET | 1 | 80.8
SET | 2 | 88.6
SET | 3 | 73.1 (active)
BRD3 | 1 | 49.2 (active)
BRD3 | 1 | 72.4 (active)
BRD3 | 2 | 51.3 (active)
BRD3 | 2 | 57.5 (active)
BRD3 | 3 | 48.5 (active)
BRD3 | 3 | 66.6 (active)
MKNK1 | 1 | 101
MKNK1 | 2 | 90.9
MKNK1 | 3 | 104
APP | 1 | 87.1
APP | 2 | 62.7 (active)
APP | 3 | 83.6
PRKAG3 | 1 | 85.3
PRKAG3 | 2 | 73.9 (active)
PRKAG3 | 3 | 94.7

Entries above whose gene name begins with A or a:
Target gene | technical replicate | viability, normalised (%)
ARID4B | 1 | 78.2 (active)
ARID4B | 2 | 92.2
ARID4B | 3 | 77.6 (active)
APP | 1 | 87.1
APP | 2 | 62.7 (active)
APP | 3 | 83.6
